In article PMC11670933:

B1: MED9 (protein, UniProt Q9NWA0 1-146)
chain: MASAGVAAGRQAEDVLPPTSDQPLPDTKPLPPPQPPPVPAPQPQQSPAPRPQSPARAREEENYSFLPLVHNIIKCMDKDSPEVHQDLNALKSKFQEMRKLISTMPGIHLSPEQQQQQLQSLREQVRTKNELLQKYKSLCMFEIPKE
B2: TXNIP (protein, UniProt Q9H3M7 1-391)
chain: MVMFKKIKSFEVVFNDPEKVYGSGEKVAGRVIVEVCEVTRVKAVRILACGVAKVLWMQGSQQCKQTSEYLRYEDTLLLEDQPTGENEMVIMRPGNKYEYKFGFELPQGPLGTSFKGKYGCVDYWVKAFLDRPSQPTQETKKNFEVVDLVDVNTPDLMAPVSAKKEKKVSCMFIPDGRVSVSARIDRKGFCEGDEISIHADFENTCSRIVVPKAAIVARHTYLANGQTKVLTQKLSSVRGNHIISGTCASWRGKSLRVQKIRPSILGCNILRVEYSLLIYVSVPGSKKVILDLPLVIGSRSGLSSRTSSMASRTSSEMSWVDLNIPDTPEAPPCYMDVIPEDHRLESPTTPLLDDMDGSQDSPIFMYAPEFKFMPPPTYTEVDPCILNNNVQ
B3: MED8 (protein, UniProt Q96G25 1-268)
chain: MQREEKQLEASLDALLSQVADLKNSLGSFICKLENEYGRLTWPSVLDSFALLSGQLNTLNKVLKHEKTPLFRNQVIIPLVLSPDRDEDLMRQTEGRVPVFSHEVVPDHLRTKPDPEVEEQEKQLTTDAARIGADAAQKQIQSLNKMCSNLLEKISKEERESESGGLRPNKQTFNPTDTNALVAAVAFGKGLSNWRPSGSSGPGQAGQPGAGTILAGTSGLQQVQMAGAPSQQQPMLSGVQMAQAGQPGKMPSGIKTNIKSASMHPYQR
B4: MED10 (protein, UniProt Q9BTT4 1-135)
chain: MAEKFDHLEEHLEKFVENIRQLGIIVSDFQPSSQAGLNQKLNFIVTGLQDIDKCRQQLHDITVPLEVFEYIDQGRNPQLYTKECLERALAKNEQVKGKIDTMKKFKSLLIQELSKVFPEDMAKYRSIRGEDHPPS
B5: MED17 (protein, UniProt Q9NVC6 1-651)
chain: MSGVRAVRISIESACEKQVHEVGLDGTETYLPPLSMSQNLARLAQRIDFSQGSGSEEEEAAGTEGDAQEWPGAGSSADQDDEEGVVKFQPSLWPWDSVRNNLRSALTEMCVLYDVLSIVRDKKFMTLDPVSQDALPPKQNPQTLQLISKKKSLAGAAQILLKGAERLTKSVTENQENKLQRDFNSELLRLRQHWKLRKVGDKILGDLSYRSAGSLFPHHGTFEVIKNTDLDLDKKIPEDYCPLDVQIPSDLEGSAYIKVSIQKQAPDIGDLGTVNLFKRPLPKSKPGSPHWQTKLEAAQNVLLCKEIFAQLSREAVQIKSQVPHIVVKNQIISQPFPSLQLSISLCHSSNDKKSQKFATEKQCPEDHLYVLEHNLHLLIREFHKQTLSSIMMPHPASAPFGHKRMRLSGPQAFDKNEINSLQSSEGLLEKIIKQAKHIFLRSRAAATIDSLASRIEDPQIQAHWSNINDVYESSVKVLITSQGYEQICKSIQLQLNIGVEQIRVVHRDGRVITLSYQEQELQDFLLSQMSQHQVHAVQQLAKVMGWQVLSFSNHVGLGPIESIGNASAITVASPSGDYAISVRNGPESGSKIMVQFPRNQCKDLPKSDVLQDNKWSHLRGPFKEVQWNKMEGRNFVYKMELLMSALSPCLL
B6: MED20 (protein, UniProt Q9H944 1-212)
chain: MGVTCVSQMPVAEGKSVQQTVELLTRKLEMLGAEKQGTFCVDCETYHTAASTLGSQGQTGKLMYVMHNSEYPLSCFALFENGPCLIADTNFDVLMVKLKGFFQSAKASKIETRGTRYQYCDFLVKVGTVTMGPSARGISVEVEYGPCVVASDCWSLLLEFLQSFLGSHTPGAPAVFGNRHDAVYGPADTMVQYMELFNKIRKQQQVPVAGIR
B7: MED25 (protein, UniProt Q71SY5 1-747)
chain: MVPGSEGPARAGSVVADVVFVIEGTANLGPYFEGLRKHYLLPAIEYFNGGPPAETDFGGDYGGTQYSLVVFNTVDCAPESYVQCHAPTSSAYEFVTWLDGIKFMGGGGESCSLIAEGLSTALQLFDDFKKMREQIGQTHRVCLLICNSPPYLLPAVESTTYSGCTTENLVQQIGERGIHFSIVSPRKLPALRLLFEKAAPPALLEPLQPPTDVSQDPRHMVLVRGLVLPVGGGSAPGPLQSKQPVPLPPAAPSGATLSAAPQQPLPPVPPQYQVPGNLSAAQVAAQNAVEAAKNQKAGLGPRFSPITPLQQAAPGVGPPFSQAPAPQLPPGPPGAPKPPPASQPSLVSTVAPGSGLAPTAQPGAPSMAGTVAPGGVSGPSPAQLGAPALGGQQSVSNKLLAWSGVLEWQEKPKPASVDANTKLTRSLPCQVYVNHGENLKTEQWPQKLIMQLIPQQLLTTLGPLFRNSRMVQFHFTNKDLESLKGLYRIMGNGFAGCVHFPHTAPCEVRVLMLLYSSKKKIFMGLIPYDQSGFVNGIRQVITNHKQVQQQKLEQQQRGMGGQQAPPGLGPILEDQARPSQNLLQLRPPQPQPQGTVGASGATGQPQPQGTAQPPPGAPQGPPGAASGPPPPGPILRPQNPGANPQLRSLLLNPPPPQTGVPPPQASLHHLQPPGAPALLPPPHQGLGQPQLGPPLLHPPPAQSWPAQLPPRAPLPGQMLLSGGPRGPVPQPGLQPSVMEDDILMDLI
B8: MED26 (protein, UniProt O95402 1-600)
chain: MTAAPASPQQIRDRLLQAIDPQSNIRNMVAVLEVISSLEKYPITKEALEETRLGKLINDVRKKTKNEELAKRAKKLLRSWQKLIEPAHQHEAALRGLAGATGSANGGAHNCRPEVGAAGPPRSIHDLKSRNDLQRLPGQRLDRLGSRKRRGDQRDLGHPGPPPKVSKASHDPLVPNSSPLPTNGISGSPESFASSLDGSGHAGPEGSRLERDENDKHSGKIPVNAVRPHTSSPGLGKPPGPCLQPKASVLQQLDRVDETPGPPHPKGPPRCSFSPRNSRHEGSFARQQSLYAPKGSVPSPSPRPQALDATQVPSPLPLAQPSTPPVRRLELLPSAESPVCWLEQPESHQRLAGPGCKAGLSPAEPLLSRAGFSPDSSKADSDAASSGGSDSKKKKRYRPRDYTVNLDGQVAEAGVKPVRLKERKLTFDPMTRQIKPLTQKEPVRADSPVHMEQQSRTELDKQEAKASLQSPFEQTNWKELSRNEIIQSYLSRQSSLLSSSGAQTPGAHHFMSEYLKQEESTRQGARQLHVLVPQSPPTDLPGLTREVTQDDLDRIQASQWPGVNGCQDTQGNWYDWTQCISLDPHGDDGRLNILPYVCLD
B9: CCNC (protein, UniProt P24863 1-283)
chain: MAGNFWQSSHYLQWILDKQDLLKERQKDLKFLSEEEYWKLQIFFTNVIQALGEHLKLRQQVIATATVYFKRFYARYSLKSIDPVLMAPTCVFLASKVEEFGVVSNTRLIAAATSVLKTRFSYAFPKEFPYRMNHILECEFYLLELMDCCLIVYHPYRPLLQYVQDMGQEDMLLPLAWRIVNDTYRTDLCLLYPPFMIALACLHVACVVQQKDARQWFAELSVDMEKILEIIRVILKLYEQWKNFDERKEMATILSKMPKPKPPPNSEGEQGPNGSQNSSYSQS

Tests used:
[1] = biological target: truncated human NOTCH2^ΔE-TurboID (human); experiment: proximity labelling; TurboID fusions stably expressed in HT-29; 500 uM biotin for one hour; streptavidin beads; label-free quantitative mass spectrometry (DIA, Q-Exactive HF X), TurboID alone as control
[2] = biological target: truncated human NOTCH2^ΔERA-TurboID (human); experiment: as above

Binder | binding [1] | binding [2]
B1 | binds | binds
B2 | binds | binds
B3 | binds | binds
B4 | binds | binds
B5 | binds | binds
B6 | binds | binds
B7 | binds | binds
B8 | binds | binds
B9 | no binding | no binding

No constants are given. Whether binding was seen depends on the method and setting. In cells and extracts the contact can be indirect. These calls come from enrichment with a bait or labelling near it, and not all partners need be listed. No binding means not detected with the bait.
